The target in assay [1] is T1, bacteriophage T4 beta-glucosyltransferase, C-terminally histidine tagged (bacteriophage T4) (UniProt P04547).
T1 sequence: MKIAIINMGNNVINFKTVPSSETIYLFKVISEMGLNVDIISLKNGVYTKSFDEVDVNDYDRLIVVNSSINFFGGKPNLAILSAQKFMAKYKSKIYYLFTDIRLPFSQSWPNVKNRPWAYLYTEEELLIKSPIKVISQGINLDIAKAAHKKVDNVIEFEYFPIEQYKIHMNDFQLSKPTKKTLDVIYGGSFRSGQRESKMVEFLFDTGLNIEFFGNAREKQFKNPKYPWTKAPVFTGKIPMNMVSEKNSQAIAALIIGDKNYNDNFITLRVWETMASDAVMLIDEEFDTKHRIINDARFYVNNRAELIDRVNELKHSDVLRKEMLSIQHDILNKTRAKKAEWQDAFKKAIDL
Description: SEC; Superdex 200 Increase 10/300 GL, 25 mM Tris-Cl pH 7.5, 200 mM NaCl, 5% glycerol; oligomeric state estimated from the elution volume; both purified.

Assay [2] addresses T2, bacteriophage T4 alpha-glucosyltransferase, C-terminally histidine tagged (bacteriophage T4) (UniProt P04519).
T2 sequence: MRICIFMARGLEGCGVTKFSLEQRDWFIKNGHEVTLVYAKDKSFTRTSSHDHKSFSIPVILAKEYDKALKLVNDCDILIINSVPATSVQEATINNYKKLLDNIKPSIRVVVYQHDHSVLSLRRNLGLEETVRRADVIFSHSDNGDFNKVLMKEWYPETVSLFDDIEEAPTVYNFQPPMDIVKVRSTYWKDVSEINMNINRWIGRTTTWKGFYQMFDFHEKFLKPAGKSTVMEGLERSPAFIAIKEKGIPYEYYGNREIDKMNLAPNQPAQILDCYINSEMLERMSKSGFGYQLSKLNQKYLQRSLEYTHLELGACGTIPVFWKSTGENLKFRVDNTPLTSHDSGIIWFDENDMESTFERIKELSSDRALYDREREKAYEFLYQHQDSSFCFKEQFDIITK
The assay is described as above.

The target in assay [3] is T2, bacteriophage T4 alpha-glucosyltransferase, C-terminally histidine tagged (bacteriophage T4). Description: pull-down; filtered E. coli supernatant with tag-free gp45 mixed with supernatant with C-terminally His-tagged α-GT or β-GT, Ni-NTA agarose, overnight at 4°C; 25 mM Tris-Cl pH 7.5, 150 mM NaCl, 5% glycerol; washed with 20 mM imidazole, eluted with 250 mM imidazole; read by gel bands.

In assay [4] the target is T1, bacteriophage T4 beta-glucosyltransferase, C-terminally histidine tagged (bacteriophage T4). The assay is described as above.

No constants are given. Whether binding was seen depends on the method and setting. For some of these results: In cells and extracts the contact can be indirect. Some binding calls cover weakened binding; strength is not graded here. Tags and fused reporters may be left off the sequences shown.

B1: bacteriophage T4 beta-glucosyltransferase, C-terminally histidine tagged (enzyme, UniProt P04547 1-351)
chain: MKIAIINMGNNVINFKTVPSSETIYLFKVISEMGLNVDIISLKNGVYTKSFDEVDVNDYDRLIVVNSSINFFGGKPNLAILSAQKFMAKYKSKIYYLFTDIRLPFSQSWPNVKNRPWAYLYTEEELLIKSPIKVISQGINLDIAKAAHKKVDNVIEFEYFPIEQYKIHMNDFQLSKPTKKTLDVIYGGSFRSGQRESKMVEFLFDTGLNIEFFGNAREKQFKNPKYPWTKAPVFTGKIPMNMVSEKNSQAIAALIIGDKNYNDNFITLRVWETMASDAVMLIDEEFDTKHRIINDARFYVNNRAELIDRVNELKHSDVLRKEMLSIQHDILNKTRAKKAEWQDAFKKAIDL
With B1, the binding result in assay [1] is “no binding”.

B2: bacteriophage T4 alpha-glucosyltransferase, C-terminally histidine tagged (enzyme, UniProt P04519 1-400)
chain: MRICIFMARGLEGCGVTKFSLEQRDWFIKNGHEVTLVYAKDKSFTRTSSHDHKSFSIPVILAKEYDKALKLVNDCDILIINSVPATSVQEATINNYKKLLDNIKPSIRVVVYQHDHSVLSLRRNLGLEETVRRADVIFSHSDNGDFNKVLMKEWYPETVSLFDDIEEAPTVYNFQPPMDIVKVRSTYWKDVSEINMNINRWIGRTTTWKGFYQMFDFHEKFLKPAGKSTVMEGLERSPAFIAIKEKGIPYEYYGNREIDKMNLAPNQPAQILDCYINSEMLERMSKSGFGYQLSKLNQKYLQRSLEYTHLELGACGTIPVFWKSTGENLKFRVDNTPLTSHDSGIIWFDENDMESTFERIKELSSDRALYDREREKAYEFLYQHQDSSFCFKEQFDIITK
Regarding B2, in assay [2], the binding entry is “no binding”.

B3: bacteriophage T4 gp45, sliding clamp protein, tag-free (protein, UniProt P04525 1-228)
chain: MKLSKDTTALLKNFATINSGIMLKSGQFIMTRAVNGTTYAEANISDVIDFDVAIYDLNGFLGILSLVNDDAEISQSEDGNIKIADARSTIFWPAADPSTVVAPNKPIPFPVASAVTEIKAEDLQQLLRVSRGLQIDTIAITVKEGKIVINGFNKVEDSALTRVKYSLTLGDYDGENTFNFIINMANMKMQPGNYKLLLWAKGKQGAAKFEGEHANYVVALEADSTHDF
As for B3, the binding entry in assay [3] is recorded as “binds”; in assay [4] it was “no binding”.

Values taken from PMC13216743.
